Binding data for seven substances are collected here from PMC11827603.

Experiment [1] concerns the target T1, PIP82-TurboID (stable S2R+ 99F8 cell line, metallothionein promoter) (Drosophila) (UniProt Q9W3E2).
T1 sequence: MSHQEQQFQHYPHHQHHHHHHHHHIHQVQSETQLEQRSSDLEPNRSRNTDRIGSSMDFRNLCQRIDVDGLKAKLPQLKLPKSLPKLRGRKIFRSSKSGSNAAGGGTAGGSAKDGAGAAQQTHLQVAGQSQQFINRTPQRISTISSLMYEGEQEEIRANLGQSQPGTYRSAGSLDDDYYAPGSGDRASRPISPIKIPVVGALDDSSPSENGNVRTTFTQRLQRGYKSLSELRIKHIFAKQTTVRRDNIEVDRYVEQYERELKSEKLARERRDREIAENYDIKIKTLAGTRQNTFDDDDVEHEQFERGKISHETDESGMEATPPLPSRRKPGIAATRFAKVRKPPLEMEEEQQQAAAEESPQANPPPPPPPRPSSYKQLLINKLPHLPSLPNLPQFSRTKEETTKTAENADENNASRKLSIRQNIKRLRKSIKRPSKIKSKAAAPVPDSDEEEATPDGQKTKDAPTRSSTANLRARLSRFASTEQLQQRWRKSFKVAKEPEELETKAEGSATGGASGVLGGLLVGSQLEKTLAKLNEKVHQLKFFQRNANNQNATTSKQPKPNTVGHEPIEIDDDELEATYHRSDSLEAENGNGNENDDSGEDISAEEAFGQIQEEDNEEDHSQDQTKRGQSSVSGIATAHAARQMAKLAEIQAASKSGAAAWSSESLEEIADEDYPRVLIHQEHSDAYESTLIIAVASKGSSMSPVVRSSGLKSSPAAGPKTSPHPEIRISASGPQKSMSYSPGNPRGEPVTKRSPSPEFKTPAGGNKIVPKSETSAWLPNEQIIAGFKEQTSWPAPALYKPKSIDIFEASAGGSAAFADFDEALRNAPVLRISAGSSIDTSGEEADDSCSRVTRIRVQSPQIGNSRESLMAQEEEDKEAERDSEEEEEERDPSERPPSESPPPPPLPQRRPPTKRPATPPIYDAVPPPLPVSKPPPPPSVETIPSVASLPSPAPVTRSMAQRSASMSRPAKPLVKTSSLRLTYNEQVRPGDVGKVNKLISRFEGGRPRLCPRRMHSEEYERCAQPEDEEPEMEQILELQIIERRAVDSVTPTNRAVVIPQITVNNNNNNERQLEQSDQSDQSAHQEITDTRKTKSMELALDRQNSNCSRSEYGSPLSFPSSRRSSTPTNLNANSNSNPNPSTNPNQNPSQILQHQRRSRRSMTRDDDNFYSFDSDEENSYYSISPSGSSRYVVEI
Put plainly: proximity labelling; TurboID fused within PIP82 in a stable S2R+ 99F8 line, 500 uM copper sulphate 72 h; three replicates of 1x10^8 cells against S2 cells; RIPA lysate, streptavidin bead enrichment, LC-MS/MS; SAINT cutoff >=0.8.

Experiment [2] deals with T2, PIP82-TurboID (UAS-PIP82-TurboID expressed in photoreceptors with Pph13-GAL4) (Drosophila) (UniProt Q9W3E2).
T2 sequence: T1 sequence
In words: proximity labelling; PIP82-TurboID expressed in photoreceptors (Pph13-GAL4); lysates of 100 adult heads a replicate against w1118 heads; RIPA lysate, streptavidin bead enrichment, LC-MS/MS; SAINT did not separate specific from non-specific, hits sorted as exclusive or at least threefold enriched.

These are yes or no findings as the source states them, for the method shown. In cells and extracts the contact can be indirect. Here binding means that the protein was enriched with, or labelled near, the bait; the list need not be complete.

Take Auxilin: in experiment [1], the binding result is “binds”.

As for Bifocal (endogenous, adult heads), the binding result in experiment [2] is recorded as “binds”.

With Epsin15, the binding entry in experiment [1] is “binds”.

On to Liquid facets, for which the binding entry in experiment [1] was “binds”.

With Liquid facets related, in experiment [1], the binding entry was “binds”.

With Supervillin (endogenous, S2 cells), the binding entry in experiment [1] is “binds”.

Consider Supervillin (endogenous, adult heads), for which, in experiment [2], the binding entry is recorded as “binds”.
